Publication PMC6447414

What was measured:
3xFLAG-Zfp423 = target: T1, 3xFLAG-Zfp423 (UniProt Q80TS5); experiment: affinity purification with mass spectrometry; 3xFLAG-Zfp423 purified from C2C12 nuclear extracts with anti-FLAG M2 magnetic beads, 3 h at 4°C, washes with buffer D (20 mM HEPES, 150 mM KCl, 0.05% NP-40, 10% glycerol) and buffer D with 500 mM KCl, eluted with 3xFLAG peptide, LC-MS/MS
T1 sequence: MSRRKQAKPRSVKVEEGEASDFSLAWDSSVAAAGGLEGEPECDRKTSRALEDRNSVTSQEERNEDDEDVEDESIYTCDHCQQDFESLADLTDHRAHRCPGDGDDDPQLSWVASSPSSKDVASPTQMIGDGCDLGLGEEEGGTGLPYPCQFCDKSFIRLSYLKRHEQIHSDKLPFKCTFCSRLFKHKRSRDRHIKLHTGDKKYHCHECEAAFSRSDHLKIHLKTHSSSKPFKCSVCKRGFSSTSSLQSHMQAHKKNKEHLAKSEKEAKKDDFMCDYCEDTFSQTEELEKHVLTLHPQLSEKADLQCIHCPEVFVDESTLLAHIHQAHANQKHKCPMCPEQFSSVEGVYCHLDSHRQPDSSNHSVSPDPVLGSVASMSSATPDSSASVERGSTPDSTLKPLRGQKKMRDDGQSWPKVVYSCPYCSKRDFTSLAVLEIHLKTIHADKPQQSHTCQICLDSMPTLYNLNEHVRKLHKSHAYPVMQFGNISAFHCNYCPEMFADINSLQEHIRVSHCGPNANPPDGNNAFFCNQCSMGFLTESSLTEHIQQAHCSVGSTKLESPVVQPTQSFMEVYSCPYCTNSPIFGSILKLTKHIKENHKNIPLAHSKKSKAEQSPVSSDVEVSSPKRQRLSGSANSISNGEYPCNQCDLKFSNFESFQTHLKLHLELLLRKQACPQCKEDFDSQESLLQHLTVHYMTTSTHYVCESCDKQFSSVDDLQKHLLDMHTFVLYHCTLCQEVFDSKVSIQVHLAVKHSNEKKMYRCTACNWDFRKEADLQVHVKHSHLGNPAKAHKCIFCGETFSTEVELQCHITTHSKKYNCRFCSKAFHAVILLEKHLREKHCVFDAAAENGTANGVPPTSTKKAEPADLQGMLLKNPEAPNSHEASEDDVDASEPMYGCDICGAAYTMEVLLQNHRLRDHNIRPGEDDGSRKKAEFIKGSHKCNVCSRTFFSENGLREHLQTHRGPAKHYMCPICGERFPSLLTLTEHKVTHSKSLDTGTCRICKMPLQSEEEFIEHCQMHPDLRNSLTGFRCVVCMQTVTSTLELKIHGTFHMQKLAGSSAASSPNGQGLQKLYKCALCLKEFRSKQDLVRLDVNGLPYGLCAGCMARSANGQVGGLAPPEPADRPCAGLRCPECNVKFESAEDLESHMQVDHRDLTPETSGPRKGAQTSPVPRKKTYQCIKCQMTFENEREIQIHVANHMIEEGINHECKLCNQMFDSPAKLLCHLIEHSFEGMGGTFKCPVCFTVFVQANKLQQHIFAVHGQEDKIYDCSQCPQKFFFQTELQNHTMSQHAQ

3xFLAG-Zfp423, Q80TS5 = target: T2, 3xFLAG-Zfp423, Q80TS5; experiment: as above; conditions: remark: other sources report otherwise
T2 chain: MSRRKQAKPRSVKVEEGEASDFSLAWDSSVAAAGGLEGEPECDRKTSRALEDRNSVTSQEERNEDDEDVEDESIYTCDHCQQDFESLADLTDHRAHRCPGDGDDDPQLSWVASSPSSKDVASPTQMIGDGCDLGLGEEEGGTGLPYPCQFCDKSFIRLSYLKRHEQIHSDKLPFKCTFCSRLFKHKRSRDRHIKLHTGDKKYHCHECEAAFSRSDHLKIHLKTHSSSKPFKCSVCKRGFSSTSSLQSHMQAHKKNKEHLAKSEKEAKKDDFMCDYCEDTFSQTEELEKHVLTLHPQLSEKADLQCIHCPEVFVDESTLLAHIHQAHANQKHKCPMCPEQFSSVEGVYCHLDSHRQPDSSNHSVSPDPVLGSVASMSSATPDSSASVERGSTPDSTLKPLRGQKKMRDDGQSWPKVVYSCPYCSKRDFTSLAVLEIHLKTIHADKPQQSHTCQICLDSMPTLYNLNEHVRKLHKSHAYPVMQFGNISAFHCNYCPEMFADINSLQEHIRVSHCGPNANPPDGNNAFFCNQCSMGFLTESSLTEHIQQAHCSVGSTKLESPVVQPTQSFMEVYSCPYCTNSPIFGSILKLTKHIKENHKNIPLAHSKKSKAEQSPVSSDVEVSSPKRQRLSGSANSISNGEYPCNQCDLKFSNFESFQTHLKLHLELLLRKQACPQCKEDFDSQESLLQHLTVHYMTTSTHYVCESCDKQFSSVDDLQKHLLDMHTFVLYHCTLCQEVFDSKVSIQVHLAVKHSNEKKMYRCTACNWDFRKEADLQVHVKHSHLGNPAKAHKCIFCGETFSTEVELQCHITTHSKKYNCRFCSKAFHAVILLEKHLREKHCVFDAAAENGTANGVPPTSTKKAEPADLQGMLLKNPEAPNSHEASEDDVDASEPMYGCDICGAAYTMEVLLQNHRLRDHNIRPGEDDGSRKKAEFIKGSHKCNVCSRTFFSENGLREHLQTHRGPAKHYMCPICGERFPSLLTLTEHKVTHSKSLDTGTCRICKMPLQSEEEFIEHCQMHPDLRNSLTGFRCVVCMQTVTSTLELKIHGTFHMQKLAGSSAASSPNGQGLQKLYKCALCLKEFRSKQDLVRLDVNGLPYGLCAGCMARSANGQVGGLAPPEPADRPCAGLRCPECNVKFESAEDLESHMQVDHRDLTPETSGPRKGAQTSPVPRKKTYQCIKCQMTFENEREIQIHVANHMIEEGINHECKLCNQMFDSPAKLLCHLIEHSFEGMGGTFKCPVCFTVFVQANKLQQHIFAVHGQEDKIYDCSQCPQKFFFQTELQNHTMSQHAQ

“Notch1 intracellular domain (Nicd1), endogenous in C2C12 (mouse (endogenous in C2C12)) (domain or fragment)” was tested. Which binding (3xFLAG-Zfp423) did it give?
Its binding is “no binding”.

B1: Ebf1, endogenous in C2C12, Q07802 1-591 (protein)
chain: MFGIQESIQRSGSSMKEEPLGSGMNAVRTWMQGAGVLDANTAAQSGVGLARAHFEKQPPSNLRKSNFFHFVLALYDRQGQPVEIERTAFVGFVEKEKEANSEKTNNGIHYRLQLLYSNGIRTEQDFYVRLIDSMTKQAIVYEGQDKNPEMCRVLLTHEIMCSRCCDKKSCGNRNETPSDPVIIDRFFLKFFLKCNQNCLKNAGNPRDMRRFQVVVSTTVNVDGHVLAVSDNMFVHNNSKHGRRARRLDPSEGTPSYLEHATPCIKAISPSEGWTTGGATVIIIGDNFFDGLQVIFGTMLVWSELITPHAIRVQTPPRHIPGVVEVTLSYKSKQFCKGTPGRFIYTALNEPTIDYGFQRLQKVIPRHPGDPERLPKEVILKRAADLVEALYGMPHNNQEIILKRAADIAEALYSVPRNHNQLPALANTSVHAGMMGVNSFSGQLAVNVSEASQATNQGFTRNSSSVSPHGYVPSTTPQQTNYNSVTTSMNGYGSAAMSNLGGSPTFLNGSAANSPYAIVPSSPTMASSTSLPSNCSSSSGIFSFSPANMVSAVKQKSAFAPVVRPQTSPPPTCTSTNGNSLQAISGMIVPPM
How did the binding (3xFLAG-Zfp423, Q80TS5) turn out when B1 was run?
The binding was “no binding”.

Results are given in words; binding and its absence hold for the method and conditions named. Binding seen in cells or lysates may run through a third protein. Here binding means that the protein was enriched with, or labelled near, the bait; the list need not be complete. No binding means not detected with the bait. Where a sequence is shown, tags or fusion partners need not be part of it.
